Results reported in publication PMC2877774.
These are yes or no findings as the source states them, for the method shown. Some entries that bind do so weakly or less than the wild type.

Chains of the proteins cited; added tags and fusions are not shown. Residues count along the entry.
UniProt P9WGH5, residues 99-177: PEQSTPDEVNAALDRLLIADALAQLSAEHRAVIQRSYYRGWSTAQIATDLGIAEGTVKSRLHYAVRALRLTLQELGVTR

Target: σ4^L, the −35-element recognition domain of Mycobacterium tuberculosis σ^L (Mycobacterium tuberculosis) (UniProt P9WGH5)
Assay: SEC; size-exclusion chromatography of σ4^L alone; data not shown; both purified

For “σ4^L, the −35-element recognition domain of Mycobacterium tuberculosis σ^L (from UniProt P9WGH5 99-177) (domain or fragment)”, the binding was “binds”.
